From publication PMC9767416, “Discovery of small molecule mechanistic target of rapamycin inhibitors as anti-aging and anti-cancer therapeutics” (Frontiers in Aging Neuroscience, 2022)

What was measured:
IR-RPE-1 senescent cells = experiment: Time-lapse microscopy of IR-senescent RPE-1; format: cell-based, human
Description: (§1) To obtain ionizing radiation (IR)-induced senescent cells, proliferating RPE-1 cells were exposed to a single dose of X-rays (20 Gy) using Pantak HF160 (Gulmay, Surrey, UK) X-ray instrument equipped with Pantak Seifert HF320 generator, MXR-161 X-ray tube (Comet AG, Flamatt, Switzerland), and an aluminum filter using current 1–10 mA. After irradiation, the cells were cultured for an additional 7 days until the development of the senescent phenotype ([Salovska et al., 2022]). To induce docetaxel-induced senescence (DIS), BJ cells were exposed to 5 nM docetaxel for 7 days, as described previously ([Sapega et al., 2018]). To prepare temozolomide (TMZ)-induced senescence, U87 cells were exposed to 100 μM TMZ for 14 days.
(§2) For auto-monitoring of cells, Incucyte SX1 Live-Cell Analysis System (Sartorius, Göttingen, Germany), located in an incubator maintained at 37°C under a 5% CO2 atmosphere and 95% humidity, was utilized. The images (1,408 × 1,040 pixels at 1.24 microns/pixel) were acquired using a 10× objective lens in phase contrast, red fluorescence (excitation: 585 ± 20 nm, emission: 635 [625, 705] nm, acquisition time: 100 ms) channels every 60 min during 72 h. The first image was acquired 30 min after adding compounds. The images were processed to measure cell confluence using Incucyte software (version 2022A). […]

TMZ-U87 cells = experiment: Time-lapse microscopy with annexin V of TMZ-induced senescent U87; format: cell-based, human; settings: 0–100 μM, 72 h
Description: as §1, §2

C57BL/6 (B6) male mice [1] = experiment: Histopathological analysis of spleen, kidney and liver; format: in vivo
Description: Spleen, kidney, and liver tissue samples from the control and treated animals were fixed in 4% formaldehyde and embedded into paraffin. The analysis and evaluation were performed at the Czech Centre for Phenogenomics, Institute of Molecular Genetics of the CAS, Vestec, using Leica ASP6025 automatic vacuum tissue processor for tissue processing, Leica EG1150 H + C embedding station for embedding, and Leica RM2255 rotary microtome for sectioning (2 μm sections). Standard haematoxylin and eosin (HE) descriptive histopathological staining was done using Leica ST5020 + CV5030 stainer and coverslipped.

C57BL/6 (B6) male mice [2] = experiment: In vivo tolerability study (behaviour, signs of toxicity, body weight); settings: p.o. 5, 25 and 50 mg/kg body weight, days 0, 3, 5
Description: C57BL/6 (B6) male mice, 8–12 weeks old, were obtained from the Institute of Molecular Genetics, Prague, Czech Republic. Experimental protocols were approved by the Institutional Animal Care Committee of the Institute of Molecular Genetics, Prague.
Compounds were dissolved in 20 μL DMSO and completed into 200 μL with corn oil.
During the experiments, mice behavior and possible apparent signs of toxicity were monitored daily. The body weights were determined on days 0, 4, and 8. On day 8, blood (25 μL) was withdrawn using a capillary pipette containing anticoagulant (heparin) from the retroorbital sinus into EDTA-containing tubes. Basic hematological parameters were measured using the Mindray BC-5300 Vet. Mice were then killed, autopsied, and abdominal organs (spleen, liver, and kidney) were removed for visual examination and imaging by a digital camera. Single-cell suspensions from the spleens were prepared by homogenization through a cell strainer (70 μm; BD Biosciences, San Jose, CA, USA). Erythrocytes were osmotically lysed using ammonium chloride-potassium lysis buffer, and the cell suspensions were washed three times in the RPMI-1640 medium and used for further analysis by flow cytometry for selected cell populations.

With `CC(C)n1nc(-c2cc3cc(O)ccc3[nH]2)c2c(N)ncnc21` [Torkinib, torkinib] the “kind of effect on senescent cells” value (IR-RPE-1 senescent cells) was “rather senomorphic than senolytic effect”, the “senescent cell phenotype in time-lapse microscopy” value (IR-RPE-1 senescent cells) was “rapid onset of vacuolization (after approximately 1 h of exposure) with partial loss of adhesion” and the “cell phenotype in time-lapse microscopy, annexin V staining” value (TMZ-U87 cells) was “same effect”. The “histopathology, kidneys” value (C57BL/6 (B6) male mice [1]; mice, 5 mg/kg p.o., HE, 200×) was “focal interstitial fibrosis (arrow), mild tubular damage, hyaline droplets”, the “histopathology, kidneys” value (C57BL/6 (B6) male mice [1]; mice, 5, 25, 50 mg/kg p.o., proportional to dose) was “signs of fibrosis” and the “pathological changes compared to compound 3-treated mice” value (C57BL/6 (B6) male mice [1]; mice, 5, 25, 50 mg/kg p.o., with the exception of the spleen) was “more pronounced”. The “changes in mice behavior and body weights” value (C57BL/6 (B6) male mice [2]) was “no changes”.
